Some entries share one result that the patent states for a list of compounds.
Test system: HMLER-shEcad mammospheres
Test: Tumoursphere formation and viability assay (TOX8)
Format: cell-based, human
Conditions: three-dimensional mammosphere tumor model; read-out: activity against mammosphere

| Compound | IC50 [µM] |
| --- | --- |
| CC(C)C[C@@H](NC(=O)CN)C(=O)N[C@H](CC(C)C)C(=O)N[C@H](CCC(=O)O)C(=O)N[C@H](CC(C)C)C(=O)N[C@H](CC(C)C)C(=O)N[C@H](CCC(=O)O)C(=O)N[C@H](CC(C)C)C(=O)N[C@H](CC(C)C)C(=O)N[C@H](CC(C)C)C(=O)N[C@H](CCCCN)C(=O)N[C@H](C)C(=O)N[C@H](C)C(=O)NCC(=O)N[C@H](Cc1c[nH]c2ccccc12)C(N)=O [D-form EEK] | 7 to 13 |
| CC(C)C[C@H](NC(=O)CN)C(=O)N[C@@H](CC(C)C)C(=O)N[C@@H](CCC(=O)O)C(=O)N[C@@H](CC(C)C)C(=O)N[C@@H](CC(C)C)C(=O)N[C@@H](CCC(=O)O)C(=O)N[C@@H](CC(C)C)C(=O)N[C@@H](CC(C)C)C(=O)N[C@@H](CC(C)C)C(=O)N[C@@H](CCCCN)C(=O)N[C@@H](C)C(=O)N[C@@H](C)C(=O)NCC(=O)N[C@@H](Cc1c[nH]c2ccccc12)C(N)=O [EEK] | 7 to 13 |

From patent US20250326794A1, “ANTI-CANCER LEUCINE-RICH PEPTIDES AND USES THEREOF” (KING'S COLLEGE LONDON, priority 2019, published 2025)
